Assay results published in patent publication US20250283049A1, “AGENT FOR CULTURING ORGANOID IN ABSENCE OF EXTRACELLULAR MATRIX” (KEIO UNIVERSITY, priority 2022, published 2025).

Legend:
[1] = system: human large intestine-derived organoids; experiment: Morphology by immunostaining of organoids established without Matrigel with Lats-IN, 18 passages; format: cell-based; conditions: established without Matrigel with Lats-IN 10 μM, day 7
[2] = system: human lower gastrointestinal organoids; experiment: Organoid morphology by immunostaining; organoids established in Matrigel, cultured without Matrigel with Lats-IN; format: cell-based; conditions: absence of Matrigel; Lats-IN 10 μM

For `O=C(N=c1sccn1Cc1ccccc1)c1c[nH]c2ncccc12` [Lats-IN], the organoid morphology [1] was “spherical morphology in which cells are multilayered and the apical polarity of the epithelial cells was not maintained” and the organoid morphology [2] was “spherical morphology in which cells are multilayered and the apical polarity of the epithelial cells was not maintained”.
